According to PubChem BioAssay AID1671190 (National Center for Advancing Translational Sciences (NCATS), 2021):
Out of some 580,000 compounds screened, about 6,100 (1.1%) were called active. The inconclusive results got no clear call from the source; some entries with a clear call stand among them for comparison. Calls follow the shape of the dose curve; as a rule, active = well fitted inhibition curve with a large enough effect; inconclusive = small, poorly fitted or top-dose-only effect, or another doubt; inactive = no such curve, though single readings can be large or run the other way. Potencies of inconclusive entries are doubtful fits and often do not repeat.
% is scaled to controls: 0 for no effect and ±100 for the full control effect; potency is read from the fitted curve at half-maximal effect.

The chains behind the UniProt entries cited, without tags or fusion partners. Where a name states a change or a piece, a line headed by the entry shows the natural chain unless it says otherwise.
UniProt P18054: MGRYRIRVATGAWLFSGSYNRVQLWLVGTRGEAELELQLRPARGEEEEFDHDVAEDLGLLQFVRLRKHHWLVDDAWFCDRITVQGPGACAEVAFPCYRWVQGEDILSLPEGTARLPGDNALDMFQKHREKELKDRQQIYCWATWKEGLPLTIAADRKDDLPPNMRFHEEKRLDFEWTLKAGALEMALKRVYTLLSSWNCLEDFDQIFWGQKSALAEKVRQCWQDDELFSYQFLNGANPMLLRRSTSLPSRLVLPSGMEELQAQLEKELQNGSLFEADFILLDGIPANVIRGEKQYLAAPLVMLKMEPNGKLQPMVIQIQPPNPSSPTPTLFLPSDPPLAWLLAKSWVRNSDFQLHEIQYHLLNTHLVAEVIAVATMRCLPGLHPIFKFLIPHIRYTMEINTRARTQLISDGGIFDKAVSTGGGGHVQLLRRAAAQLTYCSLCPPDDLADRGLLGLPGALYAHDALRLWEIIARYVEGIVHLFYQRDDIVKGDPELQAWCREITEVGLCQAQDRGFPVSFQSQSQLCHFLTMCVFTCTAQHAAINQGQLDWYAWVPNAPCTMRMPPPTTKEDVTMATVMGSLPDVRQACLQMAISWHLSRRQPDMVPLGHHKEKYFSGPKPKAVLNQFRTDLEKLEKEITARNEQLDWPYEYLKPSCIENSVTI

Each molecule was assayed against Polyunsaturated fatty acid lipoxygenase ALOX12 (Homo sapiens) (UniProt P18054) (assay: Primary qHTS assay for inhibitors of human arachidonate 12S-lipoxygenase (ALOX12): Round 2). Settings: purified 12hLO, xylenol orange hydroperoxide absorbance; activity change, negative = inhibition: at 108 µM (top of the series) unless noted.
Summary of the method: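 Hydroperoxide product was detected by ferrous iron/xylenol orange as the 573 to 405 nm absorbance ratio. Arachidonic acid at 40 uM (final) was turned over for 30 min at room temperature by 150 nM human 12hLO, pH 7.0 Hepes buffer, after 15 min compound preincubation.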
For CCC(CC)=NNc1cccc([N+](=O)[O-])c1, the Potency was inconclusive: 44.7 µM [inhibitor, partial curve, poor fit].
In the case of COc1ccc(-c2nc3ccccc3s2)cc1O, the Potency is reported as inconclusive: 35.5 µM [inhibitor, single point].
For Cc1sc2nc(CC(=O)N3CCCC3)[nH]c(=O)c2c1C, the “activity change, negative = inhibition” value was inactive: -2.04%.
In the case of CC(C)C(=O)N1CCN(Cc2coc(-c3ccc(Cl)cc3)n2)CC1, the “activity change, negative = inhibition” value is reported as inactive: -10.2%.
With Cc1ccc(NC(=S)NNC(=O)Nc2ccccc2)cc1 the Potency was inconclusive: 100 µM [inhibitor, single point].
In the case of O=C(OCC(=O)N1CCCC1=O)c1csc(NCc2ccccc2)n1, the Potency is reported as inconclusive: 10 µM [inhibitor, full curve, poor fit].
With CC[n+]1ccc(/C=C/c2ccc(N(C)C)cc2)c2ccccc21 the Potency was inconclusive: 44.7 µM [inhibitor, partial curve, poor fit].
NC(=O)Nc1ccc(C(=O)OCC(=O)Nc2sccc2C(N)=O)cc1 was tested, and the Potency was inconclusive: 44.7 µM [inhibitor, partial curve, poor fit].
For NS(=O)(=O)c1cccc(NC(=O)COC(=O)c2cc([N+](=O)[O-])ccc2N2CCCC2)c1, the Potency was inconclusive: 63.1 µM [inhibitor, partial curve, poor fit].
For COc1cc(/C=C2/C(=O)NN(c3cccc(F)c3)C2=O)ccc1OC(=O)c1ccco1, the Potency was active: 44.7 µM.
COc1cc(-c2nc(-c3ccc4c(c3)-c3ccccc3S4(=O)=O)c(-c3ccccc3)[nH]2)cc(OC)c1O was tested, and the Potency was inconclusive: 50.1 µM [inhibitor, partial curve, poor fit].
In the case of COC(=O)C1=C(c2ccccc2)c2ccccc2S(=O)(=O)N1CC(=O)Nc1cc(Cl)ccc1C, the Potency is reported as inconclusive: 44.7 µM [inhibitor, partial curve, poor fit].
With C=Cc1ccc(CN2C(=O)N(c3ccc(C(C)=O)cc3)S(=O)(=O)c3ccccc32)cc1 the “activity change, negative = inhibition” value was inactive: -61.6%.
For O=C(c1ccc(OC2CCN(CCc3ccccc3)CC2)cc1)N1CCCCC1CCCO (configuration not stated), the Potency was inconclusive: 70.8 µM [inhibitor, partial curve, poor fit].
With CN=C(NC)NCc1ccc(Br)s1 the Potency was inconclusive: 6.31 µM [inhibitor, full curve, poor fit].
With COc1cccc(N2CCN(c3c4c(nc5nncn35)CCC4)CC2)c1 the “activity change, negative = inhibition” value was inactive: -11.4%.
For CCOC(=O)[C@]12CCCC=C1N(CCC1=CCCCC1)C(=O)[C@H](CC(=O)NCCC(C)C)C2, the Potency was inconclusive: 44.7 µM [inhibitor, partial curve, poor fit].
